According to paper PMC3869937:
These are yes or no findings as the source states them, for the method shown. In cells and extracts the contact can be indirect. Some results given as binding are weak or reduced against the parent protein; the word gives no strength.

The chains behind the UniProt entries cited, without tags or fusion partners. Residues count along the entry.
UniProt Q9K1H0, residues 22-797: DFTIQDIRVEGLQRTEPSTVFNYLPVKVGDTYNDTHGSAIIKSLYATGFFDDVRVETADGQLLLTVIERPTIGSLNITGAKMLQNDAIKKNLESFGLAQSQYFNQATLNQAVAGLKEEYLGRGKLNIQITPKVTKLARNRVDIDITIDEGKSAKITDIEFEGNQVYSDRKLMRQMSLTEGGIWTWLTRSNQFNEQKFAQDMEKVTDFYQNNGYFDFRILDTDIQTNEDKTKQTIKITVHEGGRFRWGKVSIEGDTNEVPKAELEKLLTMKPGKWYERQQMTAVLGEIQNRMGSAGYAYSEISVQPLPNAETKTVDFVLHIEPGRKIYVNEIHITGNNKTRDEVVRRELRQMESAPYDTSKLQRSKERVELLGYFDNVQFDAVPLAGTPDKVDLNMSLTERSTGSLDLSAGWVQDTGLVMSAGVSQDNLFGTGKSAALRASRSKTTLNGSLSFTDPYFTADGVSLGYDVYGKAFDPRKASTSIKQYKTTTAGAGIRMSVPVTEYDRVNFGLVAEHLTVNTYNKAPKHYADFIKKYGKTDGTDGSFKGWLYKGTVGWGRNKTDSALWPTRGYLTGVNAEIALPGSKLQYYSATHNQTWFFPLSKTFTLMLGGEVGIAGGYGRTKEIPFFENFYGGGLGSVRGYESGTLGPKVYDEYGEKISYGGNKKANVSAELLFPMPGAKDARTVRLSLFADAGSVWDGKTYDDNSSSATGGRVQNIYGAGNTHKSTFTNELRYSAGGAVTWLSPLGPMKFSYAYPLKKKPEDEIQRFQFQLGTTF
UniProt P77774, residues 20-392: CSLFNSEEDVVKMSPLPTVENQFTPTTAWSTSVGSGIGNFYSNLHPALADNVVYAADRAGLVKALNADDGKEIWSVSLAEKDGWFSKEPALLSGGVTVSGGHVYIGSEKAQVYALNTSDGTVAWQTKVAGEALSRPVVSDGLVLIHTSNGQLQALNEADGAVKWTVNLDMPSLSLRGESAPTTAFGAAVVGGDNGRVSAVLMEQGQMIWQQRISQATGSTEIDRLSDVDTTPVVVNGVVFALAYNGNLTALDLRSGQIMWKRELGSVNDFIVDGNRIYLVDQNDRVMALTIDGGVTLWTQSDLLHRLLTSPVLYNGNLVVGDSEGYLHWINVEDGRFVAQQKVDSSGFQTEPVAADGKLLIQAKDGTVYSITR
UniProt P0AC02, residues 20-245: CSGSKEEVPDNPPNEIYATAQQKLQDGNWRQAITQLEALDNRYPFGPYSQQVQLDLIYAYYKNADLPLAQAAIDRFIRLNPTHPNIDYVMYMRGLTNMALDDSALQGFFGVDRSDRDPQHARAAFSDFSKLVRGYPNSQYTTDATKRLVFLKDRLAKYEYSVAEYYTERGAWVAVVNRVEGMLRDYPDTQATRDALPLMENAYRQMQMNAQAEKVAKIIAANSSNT

Target: His-tagged N. meningitidis BamA (N. meningitidis) (UniProt Q9K1H0)
Assay: pull-down; His-tagged NmBamA purified on Ni2+-NTA agarose beads under native conditions from Elugent extracts of E. coli DH5α cell envelopes; elution fractions immunoblotted with antisera against BamD and BamB; control: cells not induced with IPTG

Substance	binding
E. coli BamB (from UniProt P77774 20-392)	no binding
E. coli BamD (from UniProt P0AC02 20-245)	binds
